Measured values taken from the supplement of paper PMC10849652.
Some of the results follow.

Amino acid sequences for entries named in this document (tags omitted). A change or cut given only in a name is not applied to a line headed by its entry.
UniProt Q9UBE0: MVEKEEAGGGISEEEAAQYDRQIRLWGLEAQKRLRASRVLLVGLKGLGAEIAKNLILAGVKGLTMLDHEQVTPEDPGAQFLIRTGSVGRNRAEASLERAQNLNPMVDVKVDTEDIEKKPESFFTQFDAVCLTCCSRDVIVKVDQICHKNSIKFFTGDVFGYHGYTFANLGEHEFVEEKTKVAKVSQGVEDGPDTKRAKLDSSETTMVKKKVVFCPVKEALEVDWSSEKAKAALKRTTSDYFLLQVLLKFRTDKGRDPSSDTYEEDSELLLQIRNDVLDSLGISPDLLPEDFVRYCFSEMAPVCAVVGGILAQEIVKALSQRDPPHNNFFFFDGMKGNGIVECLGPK
UniProt A3KN83: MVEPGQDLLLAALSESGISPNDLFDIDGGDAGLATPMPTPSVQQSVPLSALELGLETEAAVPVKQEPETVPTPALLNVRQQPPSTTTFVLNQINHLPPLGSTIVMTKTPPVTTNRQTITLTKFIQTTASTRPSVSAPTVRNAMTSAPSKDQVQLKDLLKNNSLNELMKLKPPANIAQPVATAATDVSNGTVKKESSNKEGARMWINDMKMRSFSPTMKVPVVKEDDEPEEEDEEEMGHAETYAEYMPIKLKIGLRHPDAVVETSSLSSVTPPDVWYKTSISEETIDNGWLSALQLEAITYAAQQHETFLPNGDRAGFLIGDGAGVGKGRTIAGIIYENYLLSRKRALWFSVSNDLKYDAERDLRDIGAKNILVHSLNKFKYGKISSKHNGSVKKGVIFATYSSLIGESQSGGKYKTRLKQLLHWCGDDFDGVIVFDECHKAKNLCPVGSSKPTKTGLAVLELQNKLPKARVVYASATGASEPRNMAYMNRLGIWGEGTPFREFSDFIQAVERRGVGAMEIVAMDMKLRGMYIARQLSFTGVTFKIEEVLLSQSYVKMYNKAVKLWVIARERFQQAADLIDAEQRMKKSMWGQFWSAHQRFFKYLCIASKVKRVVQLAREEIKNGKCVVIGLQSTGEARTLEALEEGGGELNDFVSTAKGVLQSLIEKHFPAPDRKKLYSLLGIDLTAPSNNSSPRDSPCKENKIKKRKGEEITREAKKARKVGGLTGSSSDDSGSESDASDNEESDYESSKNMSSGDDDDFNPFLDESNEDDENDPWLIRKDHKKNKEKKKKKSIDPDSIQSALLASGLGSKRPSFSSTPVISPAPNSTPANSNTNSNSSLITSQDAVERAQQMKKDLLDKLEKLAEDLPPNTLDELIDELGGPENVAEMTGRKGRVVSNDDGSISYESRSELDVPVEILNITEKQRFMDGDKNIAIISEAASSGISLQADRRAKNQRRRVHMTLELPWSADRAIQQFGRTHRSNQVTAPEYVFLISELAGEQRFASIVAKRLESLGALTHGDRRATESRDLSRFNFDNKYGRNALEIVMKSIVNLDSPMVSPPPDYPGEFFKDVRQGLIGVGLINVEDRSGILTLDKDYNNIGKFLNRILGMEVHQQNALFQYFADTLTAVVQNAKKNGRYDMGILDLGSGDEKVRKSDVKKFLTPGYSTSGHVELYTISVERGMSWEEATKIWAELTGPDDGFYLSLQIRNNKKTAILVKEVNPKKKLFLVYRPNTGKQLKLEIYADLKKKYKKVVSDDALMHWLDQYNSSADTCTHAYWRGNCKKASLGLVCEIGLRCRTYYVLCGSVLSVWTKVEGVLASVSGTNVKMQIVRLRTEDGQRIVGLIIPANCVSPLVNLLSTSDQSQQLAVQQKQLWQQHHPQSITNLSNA
UniProt Q9UQR0: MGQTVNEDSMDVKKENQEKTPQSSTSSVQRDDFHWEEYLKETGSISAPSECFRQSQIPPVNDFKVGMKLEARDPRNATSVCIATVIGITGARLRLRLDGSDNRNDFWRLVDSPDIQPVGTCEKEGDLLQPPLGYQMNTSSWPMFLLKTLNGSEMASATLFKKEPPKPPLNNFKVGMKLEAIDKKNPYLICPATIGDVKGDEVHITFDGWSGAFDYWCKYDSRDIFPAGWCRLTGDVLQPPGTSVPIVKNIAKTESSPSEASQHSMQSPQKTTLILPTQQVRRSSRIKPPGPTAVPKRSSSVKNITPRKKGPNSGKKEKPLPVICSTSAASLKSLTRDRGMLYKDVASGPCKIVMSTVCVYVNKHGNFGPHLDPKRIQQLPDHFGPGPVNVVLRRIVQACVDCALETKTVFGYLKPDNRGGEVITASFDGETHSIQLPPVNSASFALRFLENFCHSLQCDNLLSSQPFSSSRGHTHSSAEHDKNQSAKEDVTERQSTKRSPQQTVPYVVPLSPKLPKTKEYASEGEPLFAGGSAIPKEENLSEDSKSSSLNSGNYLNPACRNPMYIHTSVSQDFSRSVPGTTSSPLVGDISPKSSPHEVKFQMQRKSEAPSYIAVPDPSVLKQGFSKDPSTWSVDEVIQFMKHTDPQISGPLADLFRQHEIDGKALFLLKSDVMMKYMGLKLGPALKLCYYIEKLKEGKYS
UniProt Q9HD40: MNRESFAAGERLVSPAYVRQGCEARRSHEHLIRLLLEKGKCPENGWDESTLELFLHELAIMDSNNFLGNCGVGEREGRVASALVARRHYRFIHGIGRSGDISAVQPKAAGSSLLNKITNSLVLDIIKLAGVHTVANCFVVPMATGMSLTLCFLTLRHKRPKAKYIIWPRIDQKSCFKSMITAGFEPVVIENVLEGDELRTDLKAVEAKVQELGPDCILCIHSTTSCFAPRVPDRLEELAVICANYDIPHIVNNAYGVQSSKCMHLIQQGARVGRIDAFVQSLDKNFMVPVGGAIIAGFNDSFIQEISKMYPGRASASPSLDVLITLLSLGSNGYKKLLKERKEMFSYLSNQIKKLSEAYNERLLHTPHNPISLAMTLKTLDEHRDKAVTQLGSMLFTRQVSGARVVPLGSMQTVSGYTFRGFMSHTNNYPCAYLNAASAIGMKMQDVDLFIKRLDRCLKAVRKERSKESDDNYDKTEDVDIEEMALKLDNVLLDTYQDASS
UniProt Q8IZE3: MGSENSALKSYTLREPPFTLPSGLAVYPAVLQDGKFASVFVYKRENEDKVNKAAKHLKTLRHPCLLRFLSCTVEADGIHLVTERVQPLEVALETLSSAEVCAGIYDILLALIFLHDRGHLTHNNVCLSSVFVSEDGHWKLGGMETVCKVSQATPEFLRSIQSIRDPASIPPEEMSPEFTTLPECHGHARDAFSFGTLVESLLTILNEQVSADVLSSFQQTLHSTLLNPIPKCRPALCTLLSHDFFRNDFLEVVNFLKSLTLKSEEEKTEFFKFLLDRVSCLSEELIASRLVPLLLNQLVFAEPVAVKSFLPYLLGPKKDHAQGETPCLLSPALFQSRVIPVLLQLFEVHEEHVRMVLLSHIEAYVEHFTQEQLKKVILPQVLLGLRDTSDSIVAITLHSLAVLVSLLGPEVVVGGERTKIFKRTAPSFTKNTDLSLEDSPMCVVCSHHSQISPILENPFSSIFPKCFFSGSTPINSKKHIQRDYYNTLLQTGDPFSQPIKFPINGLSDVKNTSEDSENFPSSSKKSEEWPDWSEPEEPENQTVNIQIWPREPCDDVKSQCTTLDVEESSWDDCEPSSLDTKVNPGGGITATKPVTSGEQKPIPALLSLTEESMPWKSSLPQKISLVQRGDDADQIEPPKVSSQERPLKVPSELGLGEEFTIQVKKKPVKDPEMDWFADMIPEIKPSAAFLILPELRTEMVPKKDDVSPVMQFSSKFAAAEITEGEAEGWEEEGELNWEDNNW
UniProt Q5VUM1: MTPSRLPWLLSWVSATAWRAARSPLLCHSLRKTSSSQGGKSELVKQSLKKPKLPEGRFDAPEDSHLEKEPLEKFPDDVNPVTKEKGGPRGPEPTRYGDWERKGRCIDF
UniProt Q9Y467: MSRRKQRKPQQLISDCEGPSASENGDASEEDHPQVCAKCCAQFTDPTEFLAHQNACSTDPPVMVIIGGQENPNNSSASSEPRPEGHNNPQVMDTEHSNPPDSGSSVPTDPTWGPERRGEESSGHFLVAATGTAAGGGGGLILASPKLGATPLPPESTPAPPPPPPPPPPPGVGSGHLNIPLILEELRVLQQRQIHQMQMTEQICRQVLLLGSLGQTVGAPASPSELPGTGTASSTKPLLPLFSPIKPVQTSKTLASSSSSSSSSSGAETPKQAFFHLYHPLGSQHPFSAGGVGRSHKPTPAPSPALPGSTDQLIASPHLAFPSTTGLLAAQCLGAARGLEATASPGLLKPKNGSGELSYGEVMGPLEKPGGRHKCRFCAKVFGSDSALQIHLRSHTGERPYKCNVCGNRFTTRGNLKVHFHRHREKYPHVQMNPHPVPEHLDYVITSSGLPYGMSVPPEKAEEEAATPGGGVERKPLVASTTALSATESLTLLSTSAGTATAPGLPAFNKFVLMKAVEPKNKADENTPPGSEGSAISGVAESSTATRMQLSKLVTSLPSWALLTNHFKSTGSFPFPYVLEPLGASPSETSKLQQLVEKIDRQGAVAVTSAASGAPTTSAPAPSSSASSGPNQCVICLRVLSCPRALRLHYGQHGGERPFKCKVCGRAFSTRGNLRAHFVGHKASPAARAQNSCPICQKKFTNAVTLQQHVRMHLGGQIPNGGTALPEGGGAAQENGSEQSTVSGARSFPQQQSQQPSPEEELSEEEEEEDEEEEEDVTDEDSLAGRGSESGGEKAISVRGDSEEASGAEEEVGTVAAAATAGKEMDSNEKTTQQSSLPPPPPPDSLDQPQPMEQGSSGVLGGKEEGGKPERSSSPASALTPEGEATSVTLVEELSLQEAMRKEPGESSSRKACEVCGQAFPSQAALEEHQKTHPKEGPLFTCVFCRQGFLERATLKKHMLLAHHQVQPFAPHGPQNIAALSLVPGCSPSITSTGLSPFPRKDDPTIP
UniProt O00560: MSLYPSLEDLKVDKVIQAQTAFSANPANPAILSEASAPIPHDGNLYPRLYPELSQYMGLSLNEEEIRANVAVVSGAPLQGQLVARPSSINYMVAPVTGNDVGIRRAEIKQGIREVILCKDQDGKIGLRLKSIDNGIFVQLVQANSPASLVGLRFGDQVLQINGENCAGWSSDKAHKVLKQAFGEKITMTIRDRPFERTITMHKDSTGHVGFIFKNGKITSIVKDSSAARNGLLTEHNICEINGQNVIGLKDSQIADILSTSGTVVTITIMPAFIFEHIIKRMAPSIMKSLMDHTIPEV
UniProt Q9NXZ1: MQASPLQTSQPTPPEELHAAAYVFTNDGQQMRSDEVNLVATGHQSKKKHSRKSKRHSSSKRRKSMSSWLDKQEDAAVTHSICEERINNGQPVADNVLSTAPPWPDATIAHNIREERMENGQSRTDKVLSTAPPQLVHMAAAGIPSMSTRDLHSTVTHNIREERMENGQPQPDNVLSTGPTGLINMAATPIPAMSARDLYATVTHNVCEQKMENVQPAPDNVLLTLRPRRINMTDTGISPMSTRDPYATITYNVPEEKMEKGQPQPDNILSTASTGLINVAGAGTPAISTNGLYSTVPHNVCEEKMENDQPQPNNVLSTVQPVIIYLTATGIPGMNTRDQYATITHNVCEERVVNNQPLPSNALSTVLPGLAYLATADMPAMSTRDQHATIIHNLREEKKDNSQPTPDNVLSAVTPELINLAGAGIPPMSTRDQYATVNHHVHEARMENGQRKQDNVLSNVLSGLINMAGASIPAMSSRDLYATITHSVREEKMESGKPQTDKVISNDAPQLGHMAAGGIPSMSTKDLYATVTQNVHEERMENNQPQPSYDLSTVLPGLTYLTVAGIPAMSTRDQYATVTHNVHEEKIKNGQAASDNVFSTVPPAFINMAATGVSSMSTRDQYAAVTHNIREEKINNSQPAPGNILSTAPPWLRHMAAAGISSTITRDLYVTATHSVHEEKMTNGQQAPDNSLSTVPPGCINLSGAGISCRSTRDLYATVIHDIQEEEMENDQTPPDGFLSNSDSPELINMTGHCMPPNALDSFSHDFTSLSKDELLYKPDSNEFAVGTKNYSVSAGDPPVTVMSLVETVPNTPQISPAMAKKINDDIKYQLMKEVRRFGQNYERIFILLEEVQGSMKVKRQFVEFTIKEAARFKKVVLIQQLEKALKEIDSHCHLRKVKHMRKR
UniProt Q8WXD2: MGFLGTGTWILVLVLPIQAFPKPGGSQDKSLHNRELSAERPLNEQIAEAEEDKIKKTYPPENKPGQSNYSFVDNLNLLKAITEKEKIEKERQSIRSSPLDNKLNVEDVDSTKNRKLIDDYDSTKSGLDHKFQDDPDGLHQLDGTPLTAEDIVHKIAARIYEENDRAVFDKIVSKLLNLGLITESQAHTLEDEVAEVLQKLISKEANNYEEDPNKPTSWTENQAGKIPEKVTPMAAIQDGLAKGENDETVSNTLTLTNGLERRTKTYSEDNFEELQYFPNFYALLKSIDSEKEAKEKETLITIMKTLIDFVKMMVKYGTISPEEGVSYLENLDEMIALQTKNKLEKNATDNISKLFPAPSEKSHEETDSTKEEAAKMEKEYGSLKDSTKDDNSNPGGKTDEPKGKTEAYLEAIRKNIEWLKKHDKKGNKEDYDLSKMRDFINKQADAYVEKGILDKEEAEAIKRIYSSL

Experiments:
Assay in all cases: log2 fold change, soluble protein after heating vs DMSO (PISA); higher = thermal stabilisation; K562 lysate, 10 uM; active = over 0.2 and 3.5 SD of the protein, either way, in both replicates (recomputed)
erlotinib = compound: C#Cc1cccc(Nc2ncnc3cc(OCCOC)c(OCCOC)cc23)c1 [erlotinib]
Summary of the method: (§1)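 Pellets of K562 cells were dounce-homogenised in PBS pH 7.4 with 1 mM MgCl2, and the crude extract was held at 1 mg/mL protein for a 30 min treatment with 10 μM compound. Aliquots were heated for 3 min over 48°C-58°C and pooled before NP-40 was added to 0.5% at 4°C. The supernatant from 21,000xg for 90 min was quantified by TMTpro 16plex LC-MS/MS with channel sums equalised. Values are reported from duplicates as log-two fold change in thermal stability relative to solvent controls.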

[1] = compound: C/C(=N\NC(=O)C1=CC(=CC=C1)S(=O)(=O)N2CCOCC2)/C3=C(C=CC(=C3)Cl)O
Summary of the method: as §1

[2] = compound: C1=CC(=CC=C1C2=NC3=C(N2)C=C(C=C3)C(=O)N)OC4=CC=C(C=C4)Cl
Summary of the method: as §1

[3] = compound: C1=CC2=C(C=CC(=C2)/C=C\3/C(=O)NC(=NCC4=CC=CS4)S3)N=C1
Summary of the method: as §1

[4] = compound: C1=CC2=NC=CN=C2C=C1/C=C/3\C(=O)NC(=O)S3
Summary of the method: as §1

[5] = compound: C1=CC=C(C=C1)C2=NC(=C(N2)C3=CC=NC=C3)C4=CC(=C(C=C4)Cl)O
Summary of the method: as §1

[6] = compound: C1=CC=C2C(=C1)C3=NNC4=CC=CC(=C43)C2=O
Summary of the method: as §1

[7] = compound: C1CCN(C1)C(=O)NC2=CC=CC(=C2)NC3=NC=C(C(=N3)NCCC4=CN=CN4)Br
Summary of the method: as §1

[8] = compound: C1CN(CCC1(CC2=CC=C(C=C2)Cl)N)C3=NC=NC4=C3C=CN4
Summary of the method: as §1

IRAK-1-4 Inhibitor I = compound: C1COCCN1CCN2C3=CC=CC=C3N=C2NC(=O)C4=CC(=CC=C4)[N+](=O)[O-] [IRAK-1-4 Inhibitor I]
Summary of the method: as §1

ibrutinib = compound: C=CC(=O)N1CCC[C@@H](n2nc(-c3ccc(Oc4ccccc4)cc3)c3c(N)ncnc32)C1 [ibrutinib]
Summary of the method: as §1

[9] = compound: CC(=O)c1cnc2ccc(-c3cc(Cl)c(O)c(Cl)c3)nc2c1N[C@H]1CC[C@H](CN(C)C)CC1
Summary of the method: as §1

ralimetinib = compound: CC(C)(C)Cn1c(N)nc2ccc(-c3[nH]c(C(C)(C)C)nc3-c3ccc(F)cc3)nc21 [ralimetinib]
Summary of the method: as §1

[10] = compound: CC(C)(O)CC(=O)NCCn1ccc2ncnc(Nc3ccc(Oc4cccc(C(F)(F)F)c4)c(Cl)c3)c21
Summary of the method: as §1

[11] = compound: CC(C)C1=C2N=C(C=C(N2N=C1)NCC3=CC=CC=C3)NCCCCCCN
Summary of the method: as §1

[12] = compound: CC1=C(C(CC(=O)N1)C2=CC=C(C=C2)C(F)(F)F)C(=O)NC3=C(C=C4C(=C3)C=NN4)F
Summary of the method: as §1

[13] = compound: CC1=C(C2=C(C=C1)C(=O)C3=CC=CC=C3N2CCCN)C
Summary of the method: as §1

[14] = compound: CC1=C(C=C(C=C1)NC(=O)C2=CC(=CC=C2)C(C)(C)C#N)NC3=CC4=C(C=C3)N=CN(C4=O)C
Summary of the method: as §1

[15] = compound: CC1=C(C=C(C=C1)NC(=O)C2=CC(=CC=C2)N(C)C)NC(=O)C3=CC=C(C=C3)O
Summary of the method: as §1

[16] = compound: CC1=CC=C(C=C1)SC2=C3C=C(SC3=CN=C2)C(=O)N
Summary of the method: as §1

Measured: log2 fold change

SAE1 (UniProt Q9UBE0)
inactive: erlotinib -0.014 | [1] -0.079 | [2] 0 | [3] -0.016 | [4] 0.004 | [5] -0.01 | [6] 0.012 | [7] 0.001 | [8] -0.005 | IRAK-1-4 Inhibitor I -0.001 | ibrutinib -0.008 | [9] 0.005 | ralimetinib 0.005 | [10] 0.003 | [11] 0 | [12] -0.007 | [13] -0.007 | [14] 0.01 | [15] -0.017 | [16] -0.003

SBNO1 (UniProt A3KN83)
inactive: erlotinib -0.012 | [1] -0.023 | [2] 0.013 | [3] 0.011 | [4] -0.009 | [5] 0.009 | [6] -0.018 | [7] -0.036 | [8] 0.023 | IRAK-1-4 Inhibitor I -0.009 | ibrutinib -0.011 | [9] -0.004 | ralimetinib -0.002 | [10] -0.012 | [11] -0.001 | [12] -0.006 | [13] -0.02 | [14] 0.021 | [15] -0.003 | [16] 0

SEC31A (UniProt D6REX3)
inactive: erlotinib -0.005 | [1] -0.073 | [2] -0.005 | [3] 0.004 | [4] -0.003 | [5] 0.02 | [6] 0.025 | [7] -0.004 | [8] -0.002 | IRAK-1-4 Inhibitor I 0.01 | ibrutinib 0.003 | [9] -0.003 | ralimetinib -0.008 | [10] -0.012 | [11] -0.016 | [12] -0.003 | [13] 0.035 | [14] 0.013 | [15] -0.004 | [16] 0.012

SCML2 (UniProt Q9UQR0)
inactive: erlotinib 0.021 | [1] 0.038 | [2] 0.019 | [3] 0.068 | [4] -0.046 | [5] 0 | [6] -0.028 | [7] -0.003 | [8] 0.043 | IRAK-1-4 Inhibitor I -0.01 | ibrutinib -0.011 | [9] 0.028 | ralimetinib 0.004 | [10] 0.034 | [11] -0.011 | [12] 0.011 | [13] -0.012 | [14] -0.015 | [15] -0.006 | [16] 0.109

SEPSECS (UniProt Q9HD40)
inactive: erlotinib 0.024 | [1] 0.48 | [2] 0.033 | [3] -0.01 | [4] 0.012 | [5] -0.024 | [6] 0.019 | [7] 0.026 | [8] 0.026 | IRAK-1-4 Inhibitor I 0 | ibrutinib 0.008 | [9] -0.015 | ralimetinib 0.039 | [10] -0.016 | [11] -0.011 | [12] 0.033 | [13] -0.013 | [14] -0.004 | [15] 0.001 | [16] -0.026

SEC24D isoform 2 (UniProt O94855)
inactive: erlotinib 0.016 | [1] 0.04 | [2] 0.012 | [3] 0.008 | [4] 0.032 | [5] 0.022 | [6] 0.001 | [7] -0.013 | [8] 0.004 | IRAK-1-4 Inhibitor I -0.002 | ibrutinib 0.005 | [9] -0.024 | ralimetinib 0.01 | [10] -0.018 | [11] 0 | [12] -0.009 | [13] -0.011 | [14] 0.019 | [15] -0.035 | [16] 0.023

Quoted at random: two entries already listed, in no set order.
SCML2 (UniProt Q9UQR0)
inactive: erlotinib 0.021 | [1] 0.038 | [2] 0.019 | [3] 0.068 | [4] -0.046 | [5] 0 | [6] -0.028 | [7] -0.003 | [8] 0.043 | IRAK-1-4 Inhibitor I -0.01 | ibrutinib -0.011 | [9] 0.028 | ralimetinib 0.004 | [10] 0.034 | [11] -0.011 | [12] 0.011 | [13] -0.012 | [14] -0.015 | [15] -0.006 | [16] 0.109

SAE1 (UniProt Q9UBE0)
inactive: erlotinib -0.014 | [1] -0.079 | [2] 0 | [3] -0.016 | [4] 0.004 | [5] -0.01 | [6] 0.012 | [7] 0.001 | [8] -0.005 | IRAK-1-4 Inhibitor I -0.001 | ibrutinib -0.008 | [9] 0.005 | ralimetinib 0.005 | [10] 0.003 | [11] 0 | [12] -0.007 | [13] -0.007 | [14] 0.01 | [15] -0.017 | [16] -0.003

Later entries.

SCPEP1 (UniProt Q9HB40)
inactive: erlotinib 0.021 | [1] 0.072 | [2] -0.043 | [3] 0.022 | [4] 0.009 | [5] 0.017 | [6] -0.03 | [7] 0.17 | [8] -0.027 | IRAK-1-4 Inhibitor I -0.002 | ibrutinib 0.024 | [9] -0.018 | ralimetinib 0 | [10] -0.011 | [11] 0.026 | [12] 0.049 | [13] -0.08 | [14] -0.012 | [15] -0.223 | [16] -0.006

SCYL3 isoform 2 (UniProt Q8IZE3)
inactive: erlotinib 0 | [1] -0.084 | [2] 0.047 | [3] 0.038 | [4] 0.014 | [5] 0.004 | [6] -0.054 | [7] -0.001 | [8] 0.008 | IRAK-1-4 Inhibitor I 0.027 | ibrutinib 0.014 | ralimetinib 0.002 | [10] -0.047 | [11] 0.01 | [12] 0.006 | [13] 0.03 | [14] 0.003 | [15] 0.1

SEC31A (UniProt H0YAB3)
inactive: erlotinib 0.029 | [2] 0.003 | [4] -0.019 | [5] -0.002 | IRAK-1-4 Inhibitor I -0.003 | ibrutinib 0.001 | [9] -0.003 | ralimetinib -0.033 | [10] 0.015 | [11] -0.064 | [12] 0.008 | [13] -0.029 | [15] -0.01 | [16] -0.082

SDHAF4 (UniProt Q5VUM1)
inactive: erlotinib -0.036 | [1] 0.068 | [2] -0.025 | [3] -0.074 | [4] -0.083 | [6] -0.064 | [7] 0.038 | [8] 0.022 | ibrutinib 0.094 | [9] -0.028 | [11] -0.029 | [13] -0.06 | [14] -0.069 | [16] -0.055

SDCCAG8 (UniProt S4R323)
inactive: erlotinib -0.347 | [2] 0.103 | [5] 0.007 | IRAK-1-4 Inhibitor I -0.082 | ralimetinib 0.067 | [10] 0.031 | [11] 0.467 | [14] -0.021 | [15] 0.023

SALL2 (UniProt Q9Y467)
inactive: erlotinib 0.143 | [2] 0.017 | [4] -0.053 | [5] -0.004 | [7] 0.056 | [8] -0.005 | IRAK-1-4 Inhibitor I -0.027 | ibrutinib -0.045 | [9] 0.147 | ralimetinib -0.022 | [10] -0.058 | [11] 0.041 | [12] 0.051 | [13] -0.008 | [14] -0.013 | [15] 0.028 | [16] -0.027

SASH1 (UniProt O94885)
inactive: erlotinib -0.015 | [2] -0.07 | [4] 0.004 | [5] 0.076 | [7] 0.002 | [8] -0.022 | IRAK-1-4 Inhibitor I -0.038 | ibrutinib 0.008 | [9] -0.014 | ralimetinib -0.024 | [10] 0 | [11] -0.004 | [12] -0.083 | [13] 0.002 | [14] 0.025 | [15] 0.019 | [16] -0.02

SDCBP isoform 2 (UniProt O00560)
inactive: erlotinib -0.224 | [2] 0 | [4] -0.017 | [5] -0.032 | IRAK-1-4 Inhibitor I -0.062 | ibrutinib 0.209 | ralimetinib 0.043 | [10] -0.059 | [11] -0.124 | [12] -0.077 | [13] 0.002 | [14] -0.094 | [15] -0.106

SAGE1 (UniProt Q9NXZ1)
inactive: erlotinib 0.007 | [2] 0.133 | [5] 0.026 | [7] -0.038 | [8] -0.072 | IRAK-1-4 Inhibitor I 0.064 | ralimetinib 0.006 | [10] 0.009 | [11] -0.084 | [12] 0.007 | [13] -0.164 | [14] -0.003 | [15] -0.054

SAP18 isoform 2 (UniProt O00422)
inactive: erlotinib 0.011 | [1] -0.018 | [2] -0.036 | [3] 0.014 | [4] -0.004 | [5] 0.004 | [6] 0.016 | [7] 0 | [8] -0.009 | IRAK-1-4 Inhibitor I 0.017 | ibrutinib 0.026 | [9] -0.006 | ralimetinib 0.031 | [10] -0.035 | [11] 0.04 | [12] 0.03 | [13] -0.049 | [14] 0.005 | [15] 0 | [16] 0.039

SCG3 (UniProt Q8WXD2)
inactive: erlotinib -0.037 | [1] -0.041 | [2] -0.008 | [3] -0.031 | [6] -0.116 | [7] 0.07 | [8] -0.006 | [11] 0.007 | [12] 0.018 | [13] 0.028 | [14] 0.027
